Source: patent US20080183070A1, “Multi-mode medical device system with thermal ablation capability and methods of using same” (Wisconsin Alumni Research Foundation, priority 2007, published 2008)
At least one compound was matched to its structure with a doubt left.

Assay: Diffusion of a fluorescent probe in swollen gelatin gel by FRAP
Format: physicochemical
Conditions: room temperature
Text: To assess the stability of DTPA[Gd(III)] in the gelatin coating, the diffusion of a fluorescence probe in gelatin was studied by the technique of fluorescence recovery after photobleaching (FRAP). The instrument and data analysis scheme are described in Kim, S. H. and Yu, H., J. Phys. Chem. 1992, 96, 4034, which is hereby fully incorporated by reference. Fluorescein was used as the fluorescence probe due, in part, to its molecular size being roughly the same as that of DTPA[Gd(III)].
The focus of the study was to examine the possible retardation effects of gelatin concentration and cross-link density on the diffusion, which was determined at room temperature, i.e., below the gel point of gelatin. The diffusion of fluorescein probe slows down with the increase of gelatin concentration. The diffusion coefficient decreases from 1.5×10-10 to 9×10-12 m2s−1 when the concentration of gelatin increases from 9% to 40%. […] Accordingly, the probe diffusion is more likely controlled by the concentration of gelatin rather than the cross-link density. On the other hand, the cross-link density may determine the swelling ratio of gelatin, i.e., the concentration of gelatin in aqueous solution. […]

O=C1OC2(c3ccc(O)cc3Oc3cc(O)ccc32)c2ccccc21 [fluorescein]
Diffusion coefficient in gelatin (gelatin concentration 9%): 1.5×10-10 m2s−1
Diffusion coefficient in gelatin (gelatin concentration 40%): 9×10-12 m2s−1
